Test results reported in patent US7615651B2, “Diaryl, dipyridinyl and aryl-pyridinyl derivatives and uses thereof” (Pfizer Inc., priority 2006, dated 2009).
At least one structure is not confirmed: it was looked up by name or label, or the drawing left a doubt. Some compounds share one wording; it may come from a single statement.

assay: Fasted induced refeeding model; assay type: in vivo, Sprague-Dawley rats; conditions: rats after overnight fast, compared with vehicle
Protocol: The following screen is used to evaluate the efficacy of test compounds for inhibiting food intake in Sprague-Dawley rats after an overnight fast.
Male Sprague-Dawley rats were obtained from Charles River Laboratories, Inc. (Wilmington, Mass.). The rats are individually housed and fed powdered chow. They are maintained on a 12 hour light/dark cycle and received food and water ad libitum. The animals are acclimated to the vivarium for a period of one week before testing is conducted. Testing is completed during the light portion of the cycle.
To conduct the food intake efficacy screen, rats are transferred to individual test cages without food the afternoon prior to testing, and the rats are fasted overnight. After the overnight fast, rats are dosed the following morning with vehicle or test compounds. A known antagonist is dosed (3 mg/kg) as a positive control, and a control group receives vehicle alone (no compound). The test compounds are dosed at ranges between 0.1 and 100 mg/kg depending upon the compound. The standard vehicle is 0.5% (w/v) methylcellulose in water and the standard route of administration is oral. However, different vehicles and routes of administration are used to accommodate various compounds when required. Food is provided to the rats 30 minutes after dosing and the Oxymax automated food intake system (Columbus Instruments, Columbus, Ohio) is started. Individual rat food intake is recorded continuously at 10-minute intervals for a period of two hours. When required, food intake is recorded manually using an electronic scale; food is weighed every 30 minutes after food is provided up to four hours after food is provided. Compound efficacy is determined by comparing the food intake pattern of compound-treated rats to vehicle and the standard positive control.

| Structure (SMILES) | food intake |
| --- | --- |
| CC(C)CCNCc1ccc(-c2cccc(-c3ncn[nH]3)c2)cc1 [7A-01] | significant reduction in food intake |
| CC(C)CCNCc1ccc(-c2cccc(-c3ncn[nH]3)c2)c(Cl)c1 [7A-04] | significant reduction in food intake |
| Cc1cc(CNCCC(C)C)ccc1-c1cccc(-c2ncn[nH]2)c1 [7A-05] | significant reduction in food intake |
| CC(C)CCNCc1cc(F)c(-c2cccc(-c3ncn[nH]3)c2)c(F)c1 [7A-06] | significant reduction in food intake |
| CC(C)CCNCc1ccc(-c2ccc(-c3ncn[nH]3)cc2)cc1 [7B-01] | significant reduction in food intake |
